These results are taken from publication PMC4161388.

No constants are given. Whether binding was seen depends on the method and setting. In cells and extracts the contact can be indirect. For some of these results: Binding calls can cover weak binding; strength is not graded here. Sequences can lack the tags named with a protein.

Holding throughout (test): co-IP; 293 cells cotransfected with N-terminally HA-tagged human RICH2 and tetherin; IP with anti-tetherin antibody; blots for HA and tetherin
The target of test [1] is rhesus macaque tetherin (rhesus macaque).
For test [2], the target named is gorilla tetherin (gorilla).
The target of test [3] is African green monkey (AGM) tetherin (African green monkey (AGM)).
The target of test [4] is chimpanzee tetherin (chimpanzee) (UniProt D7RVC2).

B1: N-terminally HA-tagged human RICH2 (protein, UniProt Q17R89 1-818)
chain: MKKQFNRMRQLANQTVGRAEKTEVLSEDLLQVEKRLELVKQVSHSTHKKLTACLQGQQGAEADKRSKKLPLTTLAQCLMEGSAILGDDTLLGKMLKLCGETEDKLAQELIHFELQVERDVIEPLFLLAEVEIPNIQKQRKHLAKLVLDMDSSRTRWQQTSKSSGLSSSLQPAGAKADALREEMEEAANRVEICRDQLSADMYSFVAKEIDYANYFQTLIEVQAEYHRKSLTLLQAVLPQIKAQQEAWVEKPSFGKPLEEHLTISGREIAFPIEACVTMLLECGMQEEGLFRVAPSASKLKKLKAALDCCVVDVQEYSADPHAIAGALKSYLRELPEPLMTFELYDEWIQASNVQEQDKKLQALWNACEKLPKANHNNIRYLIKFLSKLSEYQDVNKMTPSNMAIVLGPNLLWPQAEGNITEMMTTVSLQIVGIIEPIIQHADWFFPGEIEFNITGNYGSPVHVNHNANYSSMPSPDMDPADRRQPEQARRPLSVATDNMMLEFYKKDGLRKIQSMGVRVMDTNWVARRGSSAGRKVSCAPPSMQPPAPPAELAAPLPSPLPEQPLDSPAAPALSPSGLGLQPGPERTSTTKSKELSPGSAQKGSPGSSQGTACAGTQPGAQPGAQPGASPSPSQPPADQSPHTLRKVSKKLAPIPPKVPFGQPGAMADQSAGQPSPVSLSPTPPSTPSPYGLSYPQGYSLASGQLSPAAAPPLASPSVFTSTLSKSRPTPKPRQRPTLPPPQPPTVNLSASSPQSTEAPMLDGMSPGESMSTDLVHFDIPSIHIELGSTLRLSPLEHMRRHSVTDKRDSEEESESTAL
Consider B1, for which the binding result in test [1] was “binds”; in test [2], “binds”; in test [3], “no binding”; in test [4], “binds”.
